The list shows a part of the results. Most values lie at the level of the controls, where differences are scatter.

The chains behind the UniProt entries cited, without tags or fusion partners. Where a name states a change or a piece, a line headed by the entry shows the natural chain unless it says otherwise.
UniProt P0AAJ3: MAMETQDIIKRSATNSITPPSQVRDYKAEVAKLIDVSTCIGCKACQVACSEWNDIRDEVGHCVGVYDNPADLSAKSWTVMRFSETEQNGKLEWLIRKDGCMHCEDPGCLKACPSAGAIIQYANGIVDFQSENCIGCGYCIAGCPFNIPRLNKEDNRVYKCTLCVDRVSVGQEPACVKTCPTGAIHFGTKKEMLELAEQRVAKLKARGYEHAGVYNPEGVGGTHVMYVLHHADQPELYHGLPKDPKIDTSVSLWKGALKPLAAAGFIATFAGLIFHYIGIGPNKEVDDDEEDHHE
UniProt P0AAS3: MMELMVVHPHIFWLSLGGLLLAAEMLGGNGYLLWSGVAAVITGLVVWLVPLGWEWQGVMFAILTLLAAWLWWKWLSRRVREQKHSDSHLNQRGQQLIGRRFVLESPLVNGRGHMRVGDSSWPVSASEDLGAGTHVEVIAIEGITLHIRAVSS
UniProt P0ACV4: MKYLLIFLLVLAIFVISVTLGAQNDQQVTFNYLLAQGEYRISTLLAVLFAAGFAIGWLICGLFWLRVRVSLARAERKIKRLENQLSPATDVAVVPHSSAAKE
UniProt P0AA41: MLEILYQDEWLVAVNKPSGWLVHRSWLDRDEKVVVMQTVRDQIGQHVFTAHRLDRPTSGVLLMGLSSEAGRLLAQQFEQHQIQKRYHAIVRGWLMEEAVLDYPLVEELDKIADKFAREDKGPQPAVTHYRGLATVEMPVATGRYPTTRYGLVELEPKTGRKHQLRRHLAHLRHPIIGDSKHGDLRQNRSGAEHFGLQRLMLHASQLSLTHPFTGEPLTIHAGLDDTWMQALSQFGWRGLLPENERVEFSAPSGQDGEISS
UniProt P0AC00: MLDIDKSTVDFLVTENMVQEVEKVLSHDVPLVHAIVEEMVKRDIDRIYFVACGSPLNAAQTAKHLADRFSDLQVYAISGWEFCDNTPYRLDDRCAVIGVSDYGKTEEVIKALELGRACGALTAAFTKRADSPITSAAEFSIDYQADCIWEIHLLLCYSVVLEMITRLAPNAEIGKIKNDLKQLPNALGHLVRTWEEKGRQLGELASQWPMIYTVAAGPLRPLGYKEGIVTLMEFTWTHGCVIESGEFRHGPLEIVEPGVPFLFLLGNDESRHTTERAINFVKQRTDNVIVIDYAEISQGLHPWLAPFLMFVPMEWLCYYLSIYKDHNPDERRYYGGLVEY
UniProt P0ACR7: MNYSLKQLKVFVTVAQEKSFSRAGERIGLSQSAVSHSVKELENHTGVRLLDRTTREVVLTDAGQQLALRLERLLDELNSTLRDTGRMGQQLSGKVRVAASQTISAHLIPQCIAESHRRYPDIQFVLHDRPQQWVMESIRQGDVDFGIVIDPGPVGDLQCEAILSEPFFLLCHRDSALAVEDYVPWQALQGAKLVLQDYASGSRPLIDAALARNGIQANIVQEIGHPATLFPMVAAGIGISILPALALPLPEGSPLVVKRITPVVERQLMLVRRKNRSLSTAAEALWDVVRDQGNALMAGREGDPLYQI
UniProt P0ACU5: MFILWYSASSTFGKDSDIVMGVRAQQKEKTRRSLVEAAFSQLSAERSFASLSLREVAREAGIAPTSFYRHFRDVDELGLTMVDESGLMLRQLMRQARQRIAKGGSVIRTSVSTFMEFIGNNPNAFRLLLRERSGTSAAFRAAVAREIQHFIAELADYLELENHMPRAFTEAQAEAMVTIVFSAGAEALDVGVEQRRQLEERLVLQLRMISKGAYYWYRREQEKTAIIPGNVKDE
UniProt P0ABZ4: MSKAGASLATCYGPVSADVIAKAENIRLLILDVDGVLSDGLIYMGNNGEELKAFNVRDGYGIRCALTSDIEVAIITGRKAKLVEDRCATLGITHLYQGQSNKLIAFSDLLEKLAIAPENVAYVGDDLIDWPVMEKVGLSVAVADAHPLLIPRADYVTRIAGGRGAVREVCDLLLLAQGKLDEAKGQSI
UniProt P0AAC4: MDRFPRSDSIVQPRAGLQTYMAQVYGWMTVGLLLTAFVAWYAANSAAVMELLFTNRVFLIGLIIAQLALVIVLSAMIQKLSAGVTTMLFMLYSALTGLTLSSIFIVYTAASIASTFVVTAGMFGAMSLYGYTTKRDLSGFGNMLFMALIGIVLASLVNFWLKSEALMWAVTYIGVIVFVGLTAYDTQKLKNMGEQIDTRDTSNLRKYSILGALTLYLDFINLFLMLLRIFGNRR
UniProt P0ACK8: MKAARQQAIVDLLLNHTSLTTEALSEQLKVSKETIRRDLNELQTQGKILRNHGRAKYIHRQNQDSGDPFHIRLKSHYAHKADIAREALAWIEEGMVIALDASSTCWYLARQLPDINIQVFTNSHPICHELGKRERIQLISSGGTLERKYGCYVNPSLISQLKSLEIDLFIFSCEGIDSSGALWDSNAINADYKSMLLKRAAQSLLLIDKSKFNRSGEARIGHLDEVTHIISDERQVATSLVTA
UniProt P0AC84: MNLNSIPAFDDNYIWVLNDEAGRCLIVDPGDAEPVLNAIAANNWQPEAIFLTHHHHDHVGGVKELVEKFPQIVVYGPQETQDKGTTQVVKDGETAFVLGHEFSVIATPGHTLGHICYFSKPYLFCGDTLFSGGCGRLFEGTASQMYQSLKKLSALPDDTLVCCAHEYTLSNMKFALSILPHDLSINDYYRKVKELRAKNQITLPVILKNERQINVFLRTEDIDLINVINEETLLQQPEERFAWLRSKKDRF
UniProt P0ACM2: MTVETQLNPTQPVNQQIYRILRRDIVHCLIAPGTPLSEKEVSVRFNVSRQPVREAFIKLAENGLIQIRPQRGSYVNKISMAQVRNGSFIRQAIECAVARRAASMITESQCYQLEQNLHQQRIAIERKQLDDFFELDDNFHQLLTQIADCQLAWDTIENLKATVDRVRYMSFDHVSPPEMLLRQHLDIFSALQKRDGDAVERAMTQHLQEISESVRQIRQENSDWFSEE
UniProt P0AB24: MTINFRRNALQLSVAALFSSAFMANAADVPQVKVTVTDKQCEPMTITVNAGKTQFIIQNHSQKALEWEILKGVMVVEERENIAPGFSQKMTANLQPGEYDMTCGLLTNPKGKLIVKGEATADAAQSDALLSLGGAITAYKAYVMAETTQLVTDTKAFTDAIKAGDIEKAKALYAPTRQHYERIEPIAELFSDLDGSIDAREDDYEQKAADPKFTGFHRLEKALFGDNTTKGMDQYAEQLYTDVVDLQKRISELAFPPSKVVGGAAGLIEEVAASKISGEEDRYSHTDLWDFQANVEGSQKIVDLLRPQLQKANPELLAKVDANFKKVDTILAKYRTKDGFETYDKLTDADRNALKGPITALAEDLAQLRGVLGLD
UniProt P0AB12: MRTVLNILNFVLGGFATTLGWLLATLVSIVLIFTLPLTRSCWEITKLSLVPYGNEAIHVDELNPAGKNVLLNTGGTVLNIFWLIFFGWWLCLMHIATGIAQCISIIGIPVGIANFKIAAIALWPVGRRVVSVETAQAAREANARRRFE
UniProt P0AC51: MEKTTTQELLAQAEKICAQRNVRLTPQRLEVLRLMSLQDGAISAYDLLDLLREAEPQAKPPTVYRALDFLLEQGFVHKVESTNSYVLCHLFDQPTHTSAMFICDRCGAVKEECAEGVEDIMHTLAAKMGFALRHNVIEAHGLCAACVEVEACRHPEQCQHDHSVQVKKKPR
UniProt P0AB77: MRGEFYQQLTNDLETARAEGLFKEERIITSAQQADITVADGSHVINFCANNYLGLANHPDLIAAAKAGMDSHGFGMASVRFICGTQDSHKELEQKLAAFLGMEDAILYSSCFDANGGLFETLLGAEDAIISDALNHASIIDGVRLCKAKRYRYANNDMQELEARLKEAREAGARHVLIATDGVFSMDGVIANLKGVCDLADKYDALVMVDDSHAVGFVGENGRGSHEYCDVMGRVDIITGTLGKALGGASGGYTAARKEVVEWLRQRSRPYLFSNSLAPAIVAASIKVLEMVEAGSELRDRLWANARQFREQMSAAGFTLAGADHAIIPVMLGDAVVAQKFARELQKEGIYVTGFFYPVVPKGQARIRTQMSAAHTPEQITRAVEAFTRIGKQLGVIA
UniProt P0ACX3: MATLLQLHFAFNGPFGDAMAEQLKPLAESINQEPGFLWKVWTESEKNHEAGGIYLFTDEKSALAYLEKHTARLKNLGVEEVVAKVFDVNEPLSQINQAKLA
UniProt P0AAR8: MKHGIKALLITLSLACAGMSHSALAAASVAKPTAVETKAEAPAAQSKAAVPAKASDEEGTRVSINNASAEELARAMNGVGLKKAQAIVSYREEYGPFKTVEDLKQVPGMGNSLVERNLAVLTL
UniProt P0ABR5: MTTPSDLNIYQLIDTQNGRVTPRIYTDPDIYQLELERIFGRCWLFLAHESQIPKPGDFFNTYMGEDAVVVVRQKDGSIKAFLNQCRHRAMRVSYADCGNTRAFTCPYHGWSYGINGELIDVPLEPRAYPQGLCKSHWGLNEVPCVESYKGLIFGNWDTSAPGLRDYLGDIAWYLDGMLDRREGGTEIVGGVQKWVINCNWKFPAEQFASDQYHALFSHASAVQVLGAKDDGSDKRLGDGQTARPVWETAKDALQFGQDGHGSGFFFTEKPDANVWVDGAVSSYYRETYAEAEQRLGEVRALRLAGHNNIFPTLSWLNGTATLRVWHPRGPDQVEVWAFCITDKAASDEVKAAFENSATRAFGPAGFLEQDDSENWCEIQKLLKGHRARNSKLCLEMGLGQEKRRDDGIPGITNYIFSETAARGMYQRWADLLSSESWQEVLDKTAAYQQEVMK
UniProt P0A9T4: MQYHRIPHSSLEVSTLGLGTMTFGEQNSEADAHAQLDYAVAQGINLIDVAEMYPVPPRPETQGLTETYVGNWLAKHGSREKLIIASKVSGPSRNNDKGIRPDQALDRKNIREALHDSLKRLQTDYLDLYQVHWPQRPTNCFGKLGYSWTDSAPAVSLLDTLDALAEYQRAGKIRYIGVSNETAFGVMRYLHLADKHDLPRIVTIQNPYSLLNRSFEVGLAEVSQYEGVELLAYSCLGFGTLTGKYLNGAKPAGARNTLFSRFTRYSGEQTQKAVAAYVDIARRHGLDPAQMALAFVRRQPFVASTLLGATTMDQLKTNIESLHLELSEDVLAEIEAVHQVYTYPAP
UniProt P0ACL7: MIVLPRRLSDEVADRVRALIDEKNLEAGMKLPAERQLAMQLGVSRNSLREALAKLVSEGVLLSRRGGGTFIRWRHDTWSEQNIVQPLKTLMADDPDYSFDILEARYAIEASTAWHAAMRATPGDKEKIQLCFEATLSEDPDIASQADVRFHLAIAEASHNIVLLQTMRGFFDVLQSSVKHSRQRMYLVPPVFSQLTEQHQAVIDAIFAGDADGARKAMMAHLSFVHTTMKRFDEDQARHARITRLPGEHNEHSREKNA
UniProt P0AAS7: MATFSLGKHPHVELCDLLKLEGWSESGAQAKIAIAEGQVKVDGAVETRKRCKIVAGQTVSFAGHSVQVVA
UniProt P0ABM9: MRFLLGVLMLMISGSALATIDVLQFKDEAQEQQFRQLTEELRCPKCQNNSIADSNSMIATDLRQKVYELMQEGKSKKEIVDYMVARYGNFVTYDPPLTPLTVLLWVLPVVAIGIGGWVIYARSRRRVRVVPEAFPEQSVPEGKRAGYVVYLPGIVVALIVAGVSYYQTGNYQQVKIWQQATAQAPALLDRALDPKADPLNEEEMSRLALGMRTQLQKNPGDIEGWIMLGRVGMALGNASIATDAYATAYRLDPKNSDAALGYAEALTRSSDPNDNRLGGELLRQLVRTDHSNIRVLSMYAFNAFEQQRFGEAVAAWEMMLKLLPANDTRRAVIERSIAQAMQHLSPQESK
UniProt P0AAC8: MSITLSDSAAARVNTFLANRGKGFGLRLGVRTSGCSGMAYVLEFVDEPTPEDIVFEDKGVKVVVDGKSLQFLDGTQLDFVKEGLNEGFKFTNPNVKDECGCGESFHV

Compound in this experiment: CC1(C)S[C@@H]2[C@H](NC(=O)[C@H](N)c3ccccc3)C(=O)N2[C@H]1C(=O)O [ampicillin]
Description: log2 fold change of tryptic peptide abundance, ligand vs vehicle (limited proteolysis) (log2 ratio); higher = more trypsin-susceptible (destabilized). As to conditions: ligand concentration: 10 uM; sample: E. coli crude lysate.
Consider “UniProt P0AAJ3 (peptide sequence: CTLCVDR, peptide start residue: 160)”, for which the log2 fold change is -0.525.

With “UniProt P0AAS3 (peptide sequence: HSDSHLNQR, peptide start residue: 84)”, the log2 fold change is -0.18.

Regarding “UniProt P0ACV4 (peptide sequence: RLENQLSPATDVAVVPHSSAAKE, peptide start residue: 80)”, the log2 fold change was -0.275.

With “UniProt P0AA41 (peptide sequence: LDRPTSGVLLMGLSSEAGR, peptide start residue: 53)”, the log2 fold change stood at 0.584.

Turning to “UniProt P0AC00 (peptide sequence: ACGALTAAFTK, peptide start residue: 117)”, the log2 fold change is -0.192.

Turning to “UniProt P0ACR7 (peptide sequence: VFVTVAQEK, peptide start residue: 10)”, the log2 fold change was -0.0866.

As to “UniProt P0ACU0 (peptide sequence: LLTQDDTVNLSK, peptide start residue: 109)”, the log2 fold change was -0.161.

Consider “UniProt P0ACU5 (peptide sequence: SFASLSLR, peptide start residue: 47)”, for which the log2 fold change was -0.285.

On to “UniProt P0ABZ4 (peptide sequence: EVCDLLLLAQGK, peptide start residue: 168)”, for which the log2 fold change worked out at 0.392.

Turning to “UniProt P0AAR3 (peptide sequence: STGYLVGGISPLGQKKR, peptide start residue: 95)”, the log2 fold change is -0.619.

On to “UniProt P0AAC4 (peptide sequence: SDSIVQPR, peptide start residue: 7)”, for which the log2 fold change turned out to be 0.0326.

Take “UniProt P0ACK8 (peptide sequence: QNQDSGDPFHIR, peptide start residue: 61)”: the log2 fold change is -0.147.

Consider “UniProt P0AC84 (peptide sequence: AKNQITLPVILK, peptide start residue: 197)”, for which the log2 fold change stood at 0.206.

“UniProt P0ACM2 (peptide sequence: LAENGLIQIR, peptide start residue: 59)”: the log2 fold change was 0.397.

Take “UniProt P0AB24 (peptide sequence: FTGFHRLEK, peptide start residue: 213)”: the log2 fold change is 0.808.

For the target “UniProt P0AB12 (peptide sequence: VVSVETAQAAR, peptide start residue: 129)”, the log2 fold change was -0.0104.

Consider “UniProt P0AC51 (peptide sequence: EAEPQAKPPTVYR, peptide start residue: 53)”, for which the log2 fold change stood at 0.0751.

“UniProt P0AB77 (peptide sequence: ALGGASGGYTAAR, peptide start residue: 245)”: the log2 fold change is -0.235.

“UniProt P0ACX3 (peptide sequence: NLGVEEVVAK, peptide start residue: 75)”: the log2 fold change was -0.156.

With “UniProt P0AAR8 (peptide sequence: ASDEEGTR, peptide start residue: 54)”, the log2 fold change turned out to be 0.441.

As to “UniProt P0ABR5 (peptide sequence: VSYADCGNTR, peptide start residue: 92)”, the log2 fold change was -0.522.

Regarding “UniProt P0A9T4 (peptide sequence: EKLIIASK, peptide start residue: 80)”, the log2 fold change was -0.206.

For the target “UniProt P0ACL7 (peptide sequence: FDEDQAR, peptide start residue: 232)”, the log2 fold change is -0.117.

Regarding “UniProt P0AAS7 (peptide sequence: HPHVELCDLLKLEGWSESGAQAK, peptide start residue: 9)”, the log2 fold change was 0.236.

Take “UniProt P0ABM9 (peptide sequence: EIVDYMVAR, peptide start residue: 78)”: the log2 fold change was 0.118.

On to “UniProt P0AAC8 (peptide sequence: EGLNEGFK, peptide start residue: 82)”, for which the log2 fold change is 0.149.

The values above are taken from the supplement of paper PMC12819154, “High-throughput peptide-centric local stability assay extends protein–ligand identification to membrane proteins, tissues and bacteria” (Nature Structural & Molecular Biology, 2025).
